PubChem BioAssay AID1224827 | NIAID | 2016
Shown is an unselected part of about 3,800 reagents. Of all reagents, about 2,200 (57%) were called active. 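Active means a strong reporter change in either direction; calls are per siRNA, not per gene; qiagen siRNAs gave weaker effects.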 Entries without a mark were called inactive. Reagents against one gene are numbered here. Further read-outs or replicates are left out here.

Test: 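Confirm genes whose knock-down changes LPS-driven TNF promoter activity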 (follow-up of hits)
Cell system: RAW264.7 G9 mouse macrophage reporter clone
Reagent: single siRNA against mouse genes, 100 nM siRNA
Timing: siRNA for 2 days, then LPS about 16 h
Conditions: bacterial lipopolysaccharide (LPS), 10 ng/ml, cells fixed after overnight (about 16 h) stimulation
Read-out: 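Imaged nuclear TNF reporter intensity, background removed, scaled per plate and to non-targeting control wells, as z-scores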
Reading the numbers: TNF reporter z-score, mean: higher = stronger Tnf promoter reporter signal; gene median z, three same-vendor siRNAs: higher = stronger Tnf reporter signal for the gene
Hit rule: 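An siRNA is called active when its mean z-score over replicates is at least +2 or at most -2; control wells get no call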

| gene | reagent no. | TNF reporter z-score, mean | gene median z, three same-vendor siRNAs |
| --- | --- | --- | --- |
| Ripk2 | 1 | 3.93 (active) | -4.24 |
| Ripk2 | 2 | -4.24 (active) | -4.24 |
| Ripk2 | 3 | -4.93 (active) | -4.24 |
| Ripk2 | 4 | 3.52 (active) | 0.839 |
| Ripk2 | 5 | 3.13 (active) | 0.839 |
| Ripk2 | 6 | -1.74 | 0.839 |
| Ndrg4 | 1 | -1.26 | -3.52 |
| Ndrg4 | 2 | -3.52 (active) | -3.52 |
| Ndrg4 | 3 | -4.51 (active) | -3.52 |
| Ndrg4 | 4 | 3.97 (active) | 0.932 |
| Ndrg4 | 5 | 0.649 | 0.932 |
| Ndrg4 | 6 | -0.134 | 0.932 |
| Disp2 | 1 | 3.64 (active) | -0.0029 |
| Disp2 | 2 | -0.0029 | -0.0029 |
| Disp2 | 3 | -2.94 (active) | -0.0029 |
| Disp2 | 4 | 2.79 (active) | 0.0632 |
| Disp2 | 5 | 2.5 (active) | 0.0632 |
| Disp2 | 6 | -2.43 (active) | 0.0632 |
| Supt5 | 1 | -2.67 (active) | -4.61 |
| Supt5 | 2 | -4.61 (active) | -4.61 |
| Supt5 | 3 | -4.77 (active) | -4.61 |
| Supt5 | 4 | -2.76 (active) | -3.29 |
| Supt5 | 5 | -2.87 (active) | -3.29 |
| Supt5 | 6 | -3.82 (active) | -3.29 |
| Ren2 | 1 | -0.33 | -2.11 |
| Ren2 | 2 | -2.35 (active) | -2.11 |
| Ren2 | 3 | -3.15 (active) | -2.11 |
| Ren2 | 4 | 3.5 (active) | 0.491 |
| Ren2 | 5 | 2.92 (active) | 0.491 |
| Ren2 | 6 | -0.207 | 0.491 |
| Cadm1 | 1 | -0.0358 | -2.87 |
| Cadm1 | 2 | -2.87 (active) | -2.87 |
| Cadm1 | 3 | -5.95 (active) | -2.87 |
| Cadm1 | 4 | 3.36 (active) | 2.08 |
| Cadm1 | 5 | 3.4 (active) | 2.08 |
| Cadm1 | 6 | 0.639 | 2.08 |
| Gcm2 | 1 | -1.62 | -3.14 |
| Gcm2 | 2 | -3.14 (active) | -3.14 |
| Gcm2 | 3 | -3.61 (active) | -3.14 |
| Gcm2 | 4 | 5.26 (active) | 1.55 |
| Gcm2 | 5 | 1.04 | 1.55 |
| Gcm2 | 6 | 0.363 | 1.55 |
| Or52e15 | 1 | -2.7 (active) | -4.23 |
| Or52e15 | 2 | -4.23 (active) | -4.23 |
| Or52e15 | 3 | -4.68 (active) | -4.23 |
| Or52e15 | 4 | 2.86 (active) | 0.818 |
| Or52e15 | 5 | 1.94 | 0.818 |
| Or52e15 | 6 | -0.528 | 0.818 |
| Cck | 1 | -0.707 | -4.01 |
| Cck | 2 | -4.82 (active) | -4.01 |
| Cck | 3 | -5.2 (active) | -4.01 |
| Cck | 4 | 0.368 | -0.491 |
| Cck | 5 | 0.0075 | -0.491 |
| Cck | 6 | -1.87 | -0.491 |
| Sh2d1a | 1 | 4.71 (active) | 1.93 |
| Sh2d1a | 2 | 1.93 | 1.93 |
| Sh2d1a | 3 | -3.1 (active) | 1.93 |
| Sh2d1a | 4 | -1.25 | -1.62 |
| Sh2d1a | 5 | -1.6 | -1.62 |
| Sh2d1a | 6 | -2.33 (active) | -1.62 |

Just “gene median z, three same-vendor siRNAs”, for 4 of the entries above:
Cck #5: -0.491
Cck #6: -0.491
Sh2d1a #1: 1.93 (active)
Sh2d1a #2: 1.93
